Results: PubChem BioAssay AID540276 (National Center for Advancing Translational Sciences (NCATS), 2011)
About 5,400 (1.8%) of roughly 300,000 compounds were called active. The shares of active, inactive and inconclusive entries below differ from those in the screen. Calls follow the shape of the full dose curve; tested in HEK293 cells. Potencies of inconclusive entries are doubtful fits and often do not repeat.

test: qHTS for inhibitors of binding or entry into cells for Marburg Virus; conditions: Marburg virus pseudotyped entry inhibition, cell reporter; series mostly up to 37.8 µM
Potency is read from the fitted curve at half-maximal effect.

| SMILES | Potency |
| --- | --- |
| COc1cccc(NC(=O)CSc2nnc(-c3cccs3)o2)c1 | inconclusive: 20 µM [activator, partial curve, poor fit] |
| CCNC(=O)CCSc1nnc(-c2ccncc2)o1 | inconclusive: 1.26 µM [activator, partial curve, poor fit] |
| Oc1ccc(/C=C/c2ccnc3ccccc23)cc1 | inconclusive: 29.1 µM [inhibitor, single point] |
| COc1ccccc1OCC(=O)NN=C(Cc1ccccc1)Cc1ccccc1 | inconclusive: 29.1 µM [inhibitor, single point] |
| O=C(COC(=O)/C=C/c1ccccc1[N+](=O)[O-])NCC1CCCO1 (stereo not drawn) | inactive |
| CC(C)(C)c1ccc(OCCC(=O)NNC(=O)c2ccccc2)cc1 | inconclusive: 12.6 µM [activator, single point] |
| CC(=O)Oc1ccc2c(=O)c(Oc3ccccc3[N+](=O)[O-])coc2c1 | inconclusive: 6.31 µM [inhibitor, single point] |
| Cc1ccc(N(Cc2cc3ccccc3[nH]c2=O)C(=O)c2cccs2)cc1 | inconclusive: 1.58 µM [inhibitor, partial curve, poor fit] |
| N#Cc1ccc(Cl)cc1NC(=O)CNCc1cccs1 | inactive |
| CCOC(=O)C1(Cc2ccccc2)CCN(Cc2cccc3nccnc23)CC1 | inconclusive: 6.31 µM [inhibitor, partial curve, poor fit] |
| Cc1ccc(/C=N/N=C/c2ccc(C)s2)s1 | inconclusive: 1.41 µM [activator, partial curve, poor fit] |
| Cc1ccc(Cl)cc1N1CCN(CCCNC(=O)c2nnc(Cc3cccc(Cl)c3)o2)CC1 | inconclusive: 35.5 µM [inhibitor, single point] |
| O=C(NC(=S)Nc1ccccc1[N+](=O)[O-])c1ccco1 | inactive |
| CCOC(=O)C1=C(O)/C(=C/c2cc(C)n(-c3ccccc3)c2C)N=C1C | inconclusive: 0.891 µM [activator, partial curve, poor fit] |
| CN(CCC#N)S(=O)(=O)c1ccc2[nH]cc(C(=O)NCCc3ccccc3)c(=O)c2c1 | inconclusive: 0.13 µM [inhibitor, full curve] |
| O=C1c2ccccc2C(=O)N1Cc1cnc(N2CCN(c3ccccc3)CC2)s1 | inconclusive: 7.08 µM [inhibitor, full curve, poor fit] |
| CCCOc1ccc(C2c3c(-c4ccccc4O)n[nH]c3C(=O)N2CCCOCC)cc1OCC (stereo not drawn) | inconclusive: 35.5 µM [inhibitor, single point] |
| O=C(c1ccccc1)c1coc2ccc(O)c(Cl)c12 | inactive |
| COC(=O)Cc1c(C)c2ccc3c(c2oc1=O)CN(Cc1ccccc1OC)CO3 | inconclusive: 6.31 µM [activator, single point] |
| COc1ccc(C(=O)Nc2cccc3nc(C)ccc23)cc1OC | inactive |
| COc1ccc(NC(=O)N2CCCC(c3nc(-c4ccc(OC)cc4)no3)C2)cc1 (stereo not drawn) | inconclusive: 35.5 µM [inhibitor, single point] |
| CC(C)(C)CN1CCN(CCCc2ccccc2)C(CCO)C1 (stereo not drawn) | inconclusive: 35.5 µM [inhibitor, single point] |
| Cc1ccc2nc(-c3ccc(O)c(O)c3)cn2c1 | inconclusive: 35.5 µM [inhibitor, single point] |

| SMILES | Potency |
| --- | --- |
| CCOC(=O)CCN1C(=O)[C@H]2[C@H]3[C@H](O)[C@H](O)C/C(=N\NC(=O)OCc4ccccc4)[C@@H]3CC[C@H]2C1=O | inactive |
| COc1cccc(C(=O)NCCSc2ccc(C)cc2)c1 | inconclusive: 1 µM [inhibitor, partial curve, poor fit] |
| CCCC(=O)Nc1c2c(nc3ccccc13)N(c1ccccc1)CC2 | inconclusive: 25.1 µM [inhibitor, single point] |
| CN(C)CCNC(=O)NC(=O)c1ccc(Cl)cc1 | inconclusive: 5.01 µM [inhibitor, partial curve, poor fit] |
| COc1cc(/C=N/NC(=O)c2cccnc2)ccc1OCC(=O)Nc1c(C)cc(C)cc1C | inactive |
| O=C(O)C1CCCCC1C(=O)NCCCc1ccccc1 (stereo not drawn) | inconclusive: 6.51 µM [inhibitor, single point] |
| O=C(c1cc2ccccc2o1)N(C1CC1)C1(C(=O)Nc2ccccc2)CCCC1 | inconclusive: 25.1 µM [inhibitor, single point] |
| O=C(Oc1ccc2c(-c3ccccc3)cc(=O)oc2c1)c1cccs1 | inactive |
| Cc1ccccc1Nc1cc(C(=O)NCCc2ccc(Cl)cc2)c2ccccc2n1 | inconclusive: 14.1 µM [inhibitor, partial curve, poor fit] |
| Cc1cc(N2CCN(c3ccc(F)cc3)CC2)nc(-c2ccccc2)n1 | inactive |
| COc1cccc(NC(=O)CN(C)C(=O)/C=C/c2ccc3ccccc3n2)c1 | inconclusive: 35.5 µM [inhibitor, single point] |
| CC(=O)c1ccc(NS(=O)(=O)c2ccc(N)cc2)cc1 | inactive |
| NC(=O)c1ccc(Oc2ncc(C(F)(F)F)cc2Cl)cc1 | inconclusive: 22.4 µM [inhibitor, single point] |
| COc1ccc(C2SCCN2C(=S)Nc2cccc(C(F)(F)F)c2)cc1 (stereo not drawn) | inactive |
| O=C(OC(C(=O)Nc1ccc(Cl)cc1C(F)(F)F)c1ccccc1)c1c(Cl)cccc1Cl (stereo not drawn) | inconclusive: 35.5 µM [inhibitor, single point] |
| Nc1ccc2oc(CCc3ccccc3)nc2c1 | inconclusive: 18.3 µM [inhibitor, single point] |
| CCCN(CC(=O)Nc1ccc(Cl)cc1Cl)C(=O)/C=C/c1cc(OC)ccc1OC | inconclusive: 25.1 µM [inhibitor, single point] |
| CC(O)c1nc2ccccc2n1CC(=O)Nc1ccc2c(c1)OCCO2 (stereo not drawn) | inconclusive: 3.16 µM [activator, partial curve, poor fit] |
| Cc1ccc(C)c(Cn2c(=O)n(CCCCCC(=O)NCc3ccc4c(c3)OCO4)c(=O)c3sccc32)c1 | inactive |
| COc1ccc(S(=O)(=O)Nc2ccc(OCC(=O)O)cc2)c2ccccc12 | inconclusive: 0.708 µM [inhibitor, single point] |
| COCCn1c(-c2ccccc2)nc2c(c(=O)c3ccccc3n2C)c1=O | inconclusive: 6.51 µM [activator, single point] |
| COCCOC(=O)c1c(C)oc2ccc(OC(=O)c3c(OC)cccc3OC)cc12 | inconclusive: 14.6 µM [inhibitor, partial curve, poor fit] |

| SMILES | Potency |
| --- | --- |
| Cc1ccccc1NC(=O)C(=O)NC(C)CCc1ccccc1 (stereo not drawn) | inactive |
| COC(=O)c1cc(C(=O)OC)cc(N2C(=O)CC(NNC(=O)c3ccc(C)cc3)C2=O)c1 (stereo not drawn) | inconclusive: 0.82 µM [activator, single point] |
| Cn1cc(Cl)c(C(=O)Nc2nc3ccc(Cl)cc3s2)n1 | inactive |
| CSCc1nnc(NC(=O)c2ccc(S(=O)(=O)N3CCCCC3C)cc2)o1 (stereo not drawn) | inconclusive: 11.2 µM [inhibitor, partial curve, poor fit] |
| CC(=O)Nc1ccc(C(C#N)c2ccccc2)cc1 (stereo not drawn) | inconclusive: 35.5 µM [inhibitor, partial curve, poor fit] |
| CC(=O)N1CN(C2CC(C)(C)NC(C)(C)C2)Cc2c1sc1c2CCCC1 | inconclusive: 7.94 µM [inhibitor, partial curve, poor fit] |
| CC(=O)OC(C(=O)NCc1ccco1)c1ccncc1 (stereo not drawn) | inactive |
| CN1CCN(C(=O)c2cc3nc(-c4ccc(F)cc4)cc(C(F)(F)F)n3n2)CC1 | inconclusive: 0.891 µM [inhibitor, full curve, poor fit] |
| O=C(CSc1nc(C2CC2)nc2c1cnn2-c1ccccc1)Nc1c[nH]c(=O)[nH]c1=O | inconclusive: 4.47 µM [inhibitor, full curve, poor fit] |
| CC1CC(O)C(C)CN1 (stereo not drawn) | inconclusive: 22.4 µM [inhibitor, single point] |
| COc1ccc(-c2cc(N)n(S(=O)(=O)c3c(F)c(F)c(F)c(F)c3F)n2)cc1OC | active: 2.31 µM |
| Cc1ccc(NC(=O)CCn2cnc3cc(C)c(C)cc32)cc1 | inactive |
| COc1cccc2cc(C(=O)OC(C)C(=O)c3ccc(C)cc3)c(=O)oc12 (stereo not drawn) | inconclusive: 3.98 µM [activator, full curve, poor fit] |
| c1ccc(CSc2nnc3c(n2)OC(c2ccco2)Nc2ccccc2-3)cc1 (stereo not drawn) | inactive |
| COc1ccccc1N1CCN(c2ccc(-c3nc(-c4ccccc4)no3)cc2[N+](=O)[O-])CC1 | inconclusive: 35.5 µM [inhibitor, single point] |
| CC(=O)Nc1ccc2c(c1)[nH]c(=O)c1ccccc12 | inactive |
| CCCN1CCC(N2CCN(c3cccc(C(F)(F)F)c3)CC2)CC1 | inconclusive: 18.3 µM [inhibitor, single point] |
| CCC(C)[C@H](NC(=O)N1CC(=O)Nc2ccccc21)C(=O)NC(C)CCc1ccccc1 (stereo partly drawn) | inconclusive: 35.5 µM [inhibitor, single point] |
| CCOC(=O)Cc1csc(NC(=O)COc2ccc(C)c(C)c2)n1 | inactive |
| CCC1CCCCN1CCCNC(=O)c1ccc2c(c1)N(Cc1ccc(Cl)cc1)C(=O)c1ccccc1S2(=O)=O (stereo not drawn) | inconclusive: 15.8 µM [inhibitor, single point] |
| CCC(C)NC(=O)CCNS(=O)(=O)c1ccc(Br)cc1 (stereo not drawn) | inactive |
| O=C(/C=C/c1nc2ccccc2s1)N1CCCCCC1 | inconclusive: 2 µM [activator, partial curve, poor fit] |
